# Source: PubChem BioAssay AID1347423 (Functional Genomics Laboratory (NCATS/FGL), 2020)
# In all, about 52,000 sequences went through this assay and about 210 (0.4%) were called active.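 The calls were made as follows: active = gene whose silencing raises cell survival under the drug, median off-target-corrected z-score across its silencing RNAs 2 or more; inactive = the rest.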 The list shows a part of the results.
# Experiment: Resistance to Poly (ADP-Ribose) Polymerase inhibitor: Gene Identification via Genome-wide siRNA Screen
# Details: mouse BRCA2 R2336H ES cells, olaparib, CellTiter-Glo viability; active compounds read high
# Summary of the method: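 Mouse BRCA2 R2336H ES cells were reverse-transfected with siRNA (20 nM final), treated at 48 h with 500 nM olaparib, and read by CellTiter-Glo after 72 h. Scores: MAD-based z per siRNA, median per gene, seed off-target correction.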
row,Sequence,z-score
1,CCCUGUUUGGCAAUAACAATT against Nup98,inactive: -2.6
2,GGAGAACAAAGUAUUGGUGTT against Cacna1f,inactive: -0.403
3,GCCUGUUACAGGAAUCAGGTT against 2700083E18Rik,inactive: 0.782
4,GGACGUAAUCAACAUAGCUTT against BC059177,inactive: 3.28
5,GGAAGGUUUCAUCUUCAAATT against Hsf2,inactive: 0.144
6,GCUGAUCGCUUUGAUUCGATT against Fkbp11,inactive: 0.0597
7,GGAGGUCGAGCUAUGUUUATT against Psmd11,inactive: -3.3
8,GCUACUCGCGUUUAAUUUUTT against Slc9a9,inactive: 0.428
9,CGCCAAUGUGAUUAAACUATT against Mak,inactive: -0.478
10,GGUCUUCUGAAGAUGGCGUTT against Pja2,inactive: 0.302
11,GGGAAGCUUCUGUGAGUUUTT against Stag3,inactive: 0.863
12,GCCUCUGAACGGUUUGUAATT against Gm185,inactive: -0.359
13,GGCAUCUAGGAGAACCUCATT against Insig2,inactive: -2.02
14,GGGCAAAGGGAGUGACAAATT against Skp2,inactive: -2.16
15,CGGCUAUUCAGAGGACGAATT against Gnai3,inactive: 0.182
16,GACUAUCCUACUUACUAUATT against 1110038M16Rik,inactive: 1.03
17,GGGCCUUGAGCUCUAUUUATT against 1810063P04Rik,inactive: -1.24
18,GGAAGCAAGCAACAUCUUGTT against B230396O12Rik,inactive: -0.035
19,GGAGCAAGUCUUGAAAAUUTT against Mtmr1,inactive: 0.167
20,GCUCAAACACUUACACACUTT against Alcam,inactive: -0.161
21,CCUUCCAUGACCUAGUUAGTT against Mras,inactive: 1.89
22,GGACCUAAUCCAUAAGGUCTT against C630049M13,inactive: 0.0689
23,GGUAGAAAUGGUGAGGUGATT against Pcdhgc5,inactive: -2.16
24,CCAUGUUCCAGUUAAUGACTT against Ptch1,inactive: 0.722
25,GGAUAUUUUUUGGUGCUGATT against Gbif,inactive: 1.46
26,CCUUGCAGCAUCAGGACUUTT against Ascl2,inactive: 1.21

row,Sequence,z-score
1,CCAAUAAGAGUGCUGAUGGTT against Mkl1,inactive: 1.11
2,GGUCUUCGAAAGAACCAAGTT against Siva,inactive: -1.79
3,CCUGUGACUUUAAUUGCUUTT against Zfp275,inactive: 0.362
4,GGAUGAGUGCUCCAAGAUCTT against AW050020,inactive: -0.102
5,GGACUUGAGUGUGAAUCAATT against Anxa1,inactive: 1.16
6,GGGAAUAUUUGGAUAACUUTT against Pak7,inactive: -0.51
7,GCAAAGAACGGAAUGCACCTT against Hars2,inactive: -0.541
8,GGAAAUGUACAUCAUCAAGTT against Cnga2,inactive: 0.696
9,GGCCUCAACAUGAUGACUGTT against D230005D02Rik,inactive: -1.1
10,GGAAAACAGUGGUAGCUUATT against Cnp1,inactive: 0.471
11,CCAAGAAUGUUUCCAUGUUTT against Slc12a5,inactive: -0.938
12,GGGUUUGAUUCAUCAAAAATT against Peli1,inactive: -0.225
13,GCUAUUAAAAUAUGGGAAGTT against Olfr1314,inactive: -1.17
14,GGUAAUGGGAGCUAGUUUATT against 6330549D23Rik,inactive: 0.0492
15,GCUCCAUACUUUCACACGATT against H2-Q7,inactive: 0.174
16,GGGAUGUCUGUUGAAAUAATT against Prcc,inactive: -1.78
17,CGACAGAAACUAGAAACCCTT against 1500016L11Rik,inactive: -0.429
18,GGCCACUUGUGGACAGUUUTT against 2400009B11Rik,inactive: -2.59
19,GGCCCAUUAUGUUUAGUAATT against Gm1553,inactive: -0.0312
20,GCUUCUAGGGAUCCAAUACTT against 9130012D09Rik,inactive: -1.49
21,GGUCUGCUUUGUCUUGGUGTT against Olfr829,inactive: -1.78
22,GGCACUAAUUUCACUCUUCTT against Odz4,inactive: -1.77
23,GGCCCACAAUGUGAUUUUATT against Psap,inactive: 1.68
24,CGAUGGAUAAACCUACACCTT against Clmn,inactive: -1.36
25,GGUUUUGAUAACAGAACAUTT against Capza2,inactive: -0.212
26,GGGAAGCAGUGCUUCUUAGTT against Dars,inactive: -0.514

# Some of the entries so far, with bars between the fields.
row | Sequence | z-score
7 | GCAAAGAACGGAAUGCACCTT against Hars2 | inactive: -0.541
8 | GGAAAUGUACAUCAUCAAGTT against Cnga2 | inactive: 0.696
9 | GGCCUCAACAUGAUGACUGTT against D230005D02Rik | inactive: -1.1
10 | GGAAAACAGUGGUAGCUUATT against Cnp1 | inactive: 0.471
